# In the supplement of paper PMC12819154, “High-throughput peptide-centric local stability assay extends protein–ligand identification to membrane proteins, tissues and bacteria” (Nature Structural & Molecular Biology, 2025):
# Protein sequences, listed by entry. Tags and fused reporters are not part of them. Lines headed by an entry give the natural chain unless they say otherwise; changes in a name come on top.
# UniProt Q14592: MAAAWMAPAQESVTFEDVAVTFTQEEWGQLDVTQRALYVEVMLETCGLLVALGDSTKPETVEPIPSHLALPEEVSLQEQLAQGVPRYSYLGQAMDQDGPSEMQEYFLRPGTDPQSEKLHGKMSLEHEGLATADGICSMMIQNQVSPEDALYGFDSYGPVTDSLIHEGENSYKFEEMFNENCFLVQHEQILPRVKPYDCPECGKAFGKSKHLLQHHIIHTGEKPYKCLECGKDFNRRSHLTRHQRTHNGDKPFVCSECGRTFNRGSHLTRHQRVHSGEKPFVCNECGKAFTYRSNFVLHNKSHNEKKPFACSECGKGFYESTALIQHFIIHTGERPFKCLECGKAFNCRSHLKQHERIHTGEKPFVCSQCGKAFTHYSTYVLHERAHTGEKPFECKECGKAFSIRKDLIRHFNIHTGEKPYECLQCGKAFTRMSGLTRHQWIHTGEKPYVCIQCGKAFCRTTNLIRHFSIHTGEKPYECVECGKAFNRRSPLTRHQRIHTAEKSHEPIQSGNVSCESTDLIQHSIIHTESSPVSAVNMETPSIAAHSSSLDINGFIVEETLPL
# UniProt Q15021, whole entry: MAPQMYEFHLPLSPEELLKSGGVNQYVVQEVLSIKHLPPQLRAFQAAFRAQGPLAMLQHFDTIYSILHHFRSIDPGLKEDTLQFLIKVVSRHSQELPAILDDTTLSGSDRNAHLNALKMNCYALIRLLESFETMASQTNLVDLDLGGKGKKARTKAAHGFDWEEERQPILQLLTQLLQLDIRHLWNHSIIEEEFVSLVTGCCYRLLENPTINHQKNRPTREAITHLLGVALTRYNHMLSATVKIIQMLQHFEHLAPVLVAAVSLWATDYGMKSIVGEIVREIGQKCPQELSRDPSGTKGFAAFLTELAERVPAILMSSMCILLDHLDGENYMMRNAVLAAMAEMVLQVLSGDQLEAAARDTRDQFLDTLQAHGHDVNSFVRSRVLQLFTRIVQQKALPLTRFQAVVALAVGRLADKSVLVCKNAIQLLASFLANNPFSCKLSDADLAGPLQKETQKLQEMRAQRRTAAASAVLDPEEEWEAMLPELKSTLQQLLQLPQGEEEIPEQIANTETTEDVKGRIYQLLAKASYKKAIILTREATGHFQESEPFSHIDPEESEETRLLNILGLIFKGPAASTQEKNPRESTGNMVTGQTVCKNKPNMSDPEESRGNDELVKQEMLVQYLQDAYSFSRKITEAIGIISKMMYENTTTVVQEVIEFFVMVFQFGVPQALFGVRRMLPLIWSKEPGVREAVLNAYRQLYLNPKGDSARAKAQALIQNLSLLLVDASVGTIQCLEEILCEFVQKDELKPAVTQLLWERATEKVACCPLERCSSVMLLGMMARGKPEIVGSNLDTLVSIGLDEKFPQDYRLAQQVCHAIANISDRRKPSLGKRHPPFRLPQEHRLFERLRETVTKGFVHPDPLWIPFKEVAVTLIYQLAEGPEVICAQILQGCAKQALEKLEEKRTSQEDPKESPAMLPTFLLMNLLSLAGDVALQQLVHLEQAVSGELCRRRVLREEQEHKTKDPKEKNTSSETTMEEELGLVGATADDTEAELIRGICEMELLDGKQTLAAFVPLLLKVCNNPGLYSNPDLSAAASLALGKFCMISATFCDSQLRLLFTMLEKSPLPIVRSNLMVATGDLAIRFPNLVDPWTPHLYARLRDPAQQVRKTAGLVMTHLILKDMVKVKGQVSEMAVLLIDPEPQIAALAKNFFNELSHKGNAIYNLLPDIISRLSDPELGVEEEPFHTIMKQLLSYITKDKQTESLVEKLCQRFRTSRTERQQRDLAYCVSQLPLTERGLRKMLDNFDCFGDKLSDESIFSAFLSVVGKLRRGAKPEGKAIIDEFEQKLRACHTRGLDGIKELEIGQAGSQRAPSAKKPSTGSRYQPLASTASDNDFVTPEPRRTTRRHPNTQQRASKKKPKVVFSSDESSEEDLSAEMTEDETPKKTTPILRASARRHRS
# UniProt Q14103: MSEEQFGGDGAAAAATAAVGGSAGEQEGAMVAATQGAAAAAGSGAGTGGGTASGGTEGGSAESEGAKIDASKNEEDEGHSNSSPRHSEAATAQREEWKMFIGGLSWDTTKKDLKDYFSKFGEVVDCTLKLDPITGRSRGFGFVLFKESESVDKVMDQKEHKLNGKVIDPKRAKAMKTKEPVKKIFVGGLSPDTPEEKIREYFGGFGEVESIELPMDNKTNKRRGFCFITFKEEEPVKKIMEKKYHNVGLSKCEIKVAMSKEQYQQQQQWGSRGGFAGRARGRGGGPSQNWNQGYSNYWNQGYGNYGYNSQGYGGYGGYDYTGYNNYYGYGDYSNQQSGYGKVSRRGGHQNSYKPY
# UniProt Q14192: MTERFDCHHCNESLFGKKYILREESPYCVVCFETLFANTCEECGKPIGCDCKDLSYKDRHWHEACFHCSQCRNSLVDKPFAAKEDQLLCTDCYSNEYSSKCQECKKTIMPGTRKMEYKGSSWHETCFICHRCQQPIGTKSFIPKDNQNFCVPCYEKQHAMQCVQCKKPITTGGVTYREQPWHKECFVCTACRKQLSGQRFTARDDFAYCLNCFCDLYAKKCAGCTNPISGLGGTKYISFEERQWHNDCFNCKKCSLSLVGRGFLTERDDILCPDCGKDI
# UniProt Q14558: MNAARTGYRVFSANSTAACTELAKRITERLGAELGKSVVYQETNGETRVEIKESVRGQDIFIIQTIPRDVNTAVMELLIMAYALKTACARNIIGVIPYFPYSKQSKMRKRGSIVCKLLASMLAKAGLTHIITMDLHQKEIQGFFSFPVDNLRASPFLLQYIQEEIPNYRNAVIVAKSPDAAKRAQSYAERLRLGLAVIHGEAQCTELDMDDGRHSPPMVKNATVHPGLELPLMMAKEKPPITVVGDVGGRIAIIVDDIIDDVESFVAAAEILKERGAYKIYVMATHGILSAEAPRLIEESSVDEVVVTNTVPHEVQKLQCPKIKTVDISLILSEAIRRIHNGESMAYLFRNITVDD
# UniProt Q13451: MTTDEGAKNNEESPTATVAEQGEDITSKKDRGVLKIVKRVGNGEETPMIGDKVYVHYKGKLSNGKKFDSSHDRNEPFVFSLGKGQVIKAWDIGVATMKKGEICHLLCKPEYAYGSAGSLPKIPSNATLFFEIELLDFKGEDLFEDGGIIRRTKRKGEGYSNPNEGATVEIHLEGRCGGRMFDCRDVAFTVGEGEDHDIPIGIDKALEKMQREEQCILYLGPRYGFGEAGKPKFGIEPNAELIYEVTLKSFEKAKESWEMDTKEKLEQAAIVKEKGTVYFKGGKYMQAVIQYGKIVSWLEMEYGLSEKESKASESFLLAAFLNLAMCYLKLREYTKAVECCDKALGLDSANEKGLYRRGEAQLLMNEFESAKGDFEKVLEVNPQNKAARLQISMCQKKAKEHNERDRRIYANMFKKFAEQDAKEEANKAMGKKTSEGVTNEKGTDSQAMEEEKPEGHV
# UniProt Q13422: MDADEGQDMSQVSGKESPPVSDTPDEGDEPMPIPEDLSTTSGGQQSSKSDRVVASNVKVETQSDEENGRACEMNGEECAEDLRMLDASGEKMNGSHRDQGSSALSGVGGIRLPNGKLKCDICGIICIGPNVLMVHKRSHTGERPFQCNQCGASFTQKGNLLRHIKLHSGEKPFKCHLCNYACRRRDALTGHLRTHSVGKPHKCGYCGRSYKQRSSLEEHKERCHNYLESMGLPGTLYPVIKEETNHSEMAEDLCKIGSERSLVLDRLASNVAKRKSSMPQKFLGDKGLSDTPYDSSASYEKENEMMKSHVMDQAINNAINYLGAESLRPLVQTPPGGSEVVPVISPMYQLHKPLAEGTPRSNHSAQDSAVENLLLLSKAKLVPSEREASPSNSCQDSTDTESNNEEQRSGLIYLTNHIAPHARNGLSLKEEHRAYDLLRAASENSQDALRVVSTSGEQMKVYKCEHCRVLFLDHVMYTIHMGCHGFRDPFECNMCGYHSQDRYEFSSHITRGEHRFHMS
# UniProt Q13370: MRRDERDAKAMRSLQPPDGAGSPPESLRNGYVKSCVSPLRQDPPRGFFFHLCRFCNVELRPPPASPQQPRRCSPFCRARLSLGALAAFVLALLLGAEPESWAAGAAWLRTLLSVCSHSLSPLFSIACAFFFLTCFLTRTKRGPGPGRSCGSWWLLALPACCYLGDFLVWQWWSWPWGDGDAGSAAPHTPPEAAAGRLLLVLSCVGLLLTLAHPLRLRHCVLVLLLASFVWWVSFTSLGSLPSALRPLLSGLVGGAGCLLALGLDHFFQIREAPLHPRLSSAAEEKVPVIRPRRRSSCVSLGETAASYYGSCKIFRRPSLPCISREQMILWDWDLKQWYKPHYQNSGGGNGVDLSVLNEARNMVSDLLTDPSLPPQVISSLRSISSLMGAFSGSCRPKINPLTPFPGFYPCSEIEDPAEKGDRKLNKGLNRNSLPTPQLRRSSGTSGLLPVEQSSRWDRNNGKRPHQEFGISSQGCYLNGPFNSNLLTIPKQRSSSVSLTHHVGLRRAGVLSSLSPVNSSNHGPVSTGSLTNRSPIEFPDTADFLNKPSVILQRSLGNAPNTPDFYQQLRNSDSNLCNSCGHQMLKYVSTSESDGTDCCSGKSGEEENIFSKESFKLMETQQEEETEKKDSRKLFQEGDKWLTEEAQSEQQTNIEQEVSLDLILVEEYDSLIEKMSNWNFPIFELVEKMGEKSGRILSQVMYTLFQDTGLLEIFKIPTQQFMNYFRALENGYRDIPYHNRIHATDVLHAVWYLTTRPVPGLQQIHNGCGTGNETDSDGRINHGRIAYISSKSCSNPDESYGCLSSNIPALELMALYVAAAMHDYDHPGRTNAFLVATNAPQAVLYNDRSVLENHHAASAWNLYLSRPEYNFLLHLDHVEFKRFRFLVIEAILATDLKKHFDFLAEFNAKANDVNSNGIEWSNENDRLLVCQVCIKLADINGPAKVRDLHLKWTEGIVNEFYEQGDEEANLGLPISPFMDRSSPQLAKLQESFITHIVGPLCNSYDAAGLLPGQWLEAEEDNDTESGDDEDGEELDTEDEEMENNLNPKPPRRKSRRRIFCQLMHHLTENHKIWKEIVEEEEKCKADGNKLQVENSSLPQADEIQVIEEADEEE
# UniProt Q13191, whole entry: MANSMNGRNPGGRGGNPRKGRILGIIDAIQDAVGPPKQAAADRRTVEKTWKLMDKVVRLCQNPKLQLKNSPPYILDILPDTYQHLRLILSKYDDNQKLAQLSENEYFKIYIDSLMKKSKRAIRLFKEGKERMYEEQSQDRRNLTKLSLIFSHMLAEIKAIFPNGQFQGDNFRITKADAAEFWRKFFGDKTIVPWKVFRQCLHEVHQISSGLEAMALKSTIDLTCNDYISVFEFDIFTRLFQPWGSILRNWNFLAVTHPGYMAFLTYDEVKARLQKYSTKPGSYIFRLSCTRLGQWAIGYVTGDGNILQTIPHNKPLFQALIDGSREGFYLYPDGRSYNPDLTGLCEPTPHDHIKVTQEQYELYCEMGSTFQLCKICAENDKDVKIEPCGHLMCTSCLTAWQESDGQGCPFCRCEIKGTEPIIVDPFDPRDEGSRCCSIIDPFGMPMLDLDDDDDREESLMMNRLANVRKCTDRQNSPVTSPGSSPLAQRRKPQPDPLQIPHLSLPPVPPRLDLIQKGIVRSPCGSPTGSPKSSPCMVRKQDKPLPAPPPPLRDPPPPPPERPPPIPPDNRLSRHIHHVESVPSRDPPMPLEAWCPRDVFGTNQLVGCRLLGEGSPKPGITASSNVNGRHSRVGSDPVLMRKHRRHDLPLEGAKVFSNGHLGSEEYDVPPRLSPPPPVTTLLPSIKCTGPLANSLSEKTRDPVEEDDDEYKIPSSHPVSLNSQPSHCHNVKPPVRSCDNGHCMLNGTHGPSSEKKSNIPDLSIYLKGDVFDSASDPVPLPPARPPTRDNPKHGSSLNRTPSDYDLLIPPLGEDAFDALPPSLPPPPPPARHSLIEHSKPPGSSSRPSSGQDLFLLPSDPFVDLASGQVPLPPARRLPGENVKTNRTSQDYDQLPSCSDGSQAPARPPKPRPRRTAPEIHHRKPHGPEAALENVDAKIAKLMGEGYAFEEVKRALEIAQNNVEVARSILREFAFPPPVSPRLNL
# UniProt Q13356: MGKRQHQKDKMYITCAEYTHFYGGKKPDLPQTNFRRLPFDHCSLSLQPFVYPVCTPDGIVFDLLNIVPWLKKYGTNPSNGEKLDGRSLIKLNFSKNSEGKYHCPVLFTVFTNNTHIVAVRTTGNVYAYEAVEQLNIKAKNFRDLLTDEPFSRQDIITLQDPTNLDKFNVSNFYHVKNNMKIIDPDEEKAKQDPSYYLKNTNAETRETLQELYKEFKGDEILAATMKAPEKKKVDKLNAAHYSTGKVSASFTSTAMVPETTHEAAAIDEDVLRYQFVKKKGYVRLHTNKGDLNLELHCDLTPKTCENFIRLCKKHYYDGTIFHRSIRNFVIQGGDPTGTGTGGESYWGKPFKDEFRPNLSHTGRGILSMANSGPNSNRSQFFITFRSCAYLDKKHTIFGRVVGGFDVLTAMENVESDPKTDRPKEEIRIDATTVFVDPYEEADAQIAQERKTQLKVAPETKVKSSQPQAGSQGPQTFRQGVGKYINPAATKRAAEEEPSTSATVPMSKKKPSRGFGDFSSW
# Some of the results follow. Most entries show no effect beyond the scatter of the controls.
# Compound: CN[C@@H]1C[C@H]2O[C@@](C)([C@@H]1OC)n1c3ccccc3c3c4c(c5c6ccccc6n2c5c31)C(=O)NC4 [staurosporine]
# Assay: log2 fold change of tryptic peptide abundance, ligand vs vehicle (limited proteolysis) (log2 ratio); higher = more trypsin-susceptible (destabilized)
# Details: ligand concentration: 20 uM; sample: K562 cleared lysate; digestion: 4 min, 22 C (HT-PELSA RT4min, Orbitrap Astral)
row,Target,log2 fold change
1,"ZNF460 (peptide sequence: HFNIHTGEKPYECLQCGK, peptide start residue: 410) (UniProt Q14592)",-0.451
2,"FRG1 (peptide sequence: SKTAGEEEMIK, peptide start residue: 169) (UniProt Q14331)",-0.375
3,"UniProt Q15006 (peptide sequence: ALFGLYMSASHIASNPK, peptide start residue: 228)",0.432
4,"DIP2A (peptide sequence: ELAHLEDSDQAR, peptide start residue: 971) (UniProt Q14689)",0.631
5,"UniProt Q14031 (peptide sequence: AGTPGEKGDR, peptide start residue: 938)",-0.526
6,"RRP1B (peptide sequence: GSPTGGAQLLK, peptide start residue: 512) (UniProt Q14684)",-0.167
7,"NCAPD2 (peptide sequence: FPNLVDPWTPHLYAR, peptide start residue: 1086) (UniProt Q15021)",-0.382
8,"TFDP2 (peptide sequence: NVGLTSTNAEVR, peptide start residue: 5) (UniProt Q14188)",-0.423
9,"HNRNPD (peptide sequence: KYHNVGLSK, peptide start residue: 243) (UniProt Q14103)",0.216
10,"PDIA5 (peptide sequence: FHISEFPTLK, peptide start residue: 347) (UniProt Q14554)",-0.0213
11,"FHL2 (peptide sequence: GSSWHETCFICHR, peptide start residue: 119) (UniProt Q14192)",-0.866
12,"MED21 (peptide sequence: IQSALADIAQSQLK, peptide start residue: 118) (UniProt Q13503)",0.227
13,"CBFB (peptide sequence: SHREEMEVR, peptide start residue: 159) (UniProt Q13951)",0.222
14,"LASP1 (peptide sequence: DSQDGSSYR, peptide start residue: 145) (UniProt Q14847)",-0.117
15,"TNIP1 (peptide sequence: SELLEVNK, peptide start residue: 311) (UniProt Q15025)",0.285
16,"DCTN1 (peptide sequence: AKEEQQDDTVYMGK, peptide start residue: 1234) (UniProt Q14203)",-0.193
17,"IQGAP2 (peptide sequence: RQNIAYEYLCHLEEAKR, peptide start residue: 33) (UniProt Q13576)",0.57
18,"NBR1 (peptide sequence: SLTLDAAPDHNPPCR, peptide start residue: 656) (UniProt Q14596)",-0.36
19,"PRPSAP1 (peptide sequence: EIQGFFSFPVDNLR, peptide start residue: 139) (UniProt Q14558)",0.548
20,"UniProt Q13164 (peptide sequence: LTGQQVAIK, peptide start residue: 76)",-0.642
21,"FLNC (peptide sequence: AFGPGLEGGLVNK, peptide start residue: 1355) (UniProt Q14315)",0.655
22,"FKBP5 (peptide sequence: FAEQDAKEEANK, peptide start residue: 416) (UniProt Q13451)",-0.121
23,"IKZF1 (peptide sequence: NGLSLKEEHR, peptide start residue: 424) (UniProt Q13422)",0.339
24,"PDE3B (peptide sequence: SSSVSLTHHVGLR, peptide start residue: 493) (UniProt Q13370)",0.599
25,"CBLB (peptide sequence: RLPGENVK, peptide start residue: 874) (UniProt Q13191)",0.562
26,"PPIL2 (peptide sequence: ETLQELYK, peptide start residue: 206) (UniProt Q13356)",-0.215
27,"SLC29A2 (peptide sequence: SSQAQAQELETK, peptide start residue: 227) (UniProt Q14542)",0.75
28,"MYO9B (peptide sequence: SPLEHSSPEK, peptide start residue: 1109) (UniProt Q13459)",0.473

# Given bar-delimited: part of the list above
row | Target | log2 fold change
24 | PDE3B (peptide sequence: SSSVSLTHHVGLR, peptide start residue: 493) (UniProt Q13370) | 0.599
25 | CBLB (peptide sequence: RLPGENVK, peptide start residue: 874) (UniProt Q13191) | 0.562
